The source of these data is patent US20230301998A1, “METHODS AND COMPOSITIONS FOR INDUCTION OF ANTITUMOR IMMUNITY” (Sanford Burnham Prebys Medical Discovery Institute, priority 2020, published 2023).

By UniProt entry, the sequences of proteins in these tests, tags left out. Residues count along the entry.
UniProt P06396, residues 52-782: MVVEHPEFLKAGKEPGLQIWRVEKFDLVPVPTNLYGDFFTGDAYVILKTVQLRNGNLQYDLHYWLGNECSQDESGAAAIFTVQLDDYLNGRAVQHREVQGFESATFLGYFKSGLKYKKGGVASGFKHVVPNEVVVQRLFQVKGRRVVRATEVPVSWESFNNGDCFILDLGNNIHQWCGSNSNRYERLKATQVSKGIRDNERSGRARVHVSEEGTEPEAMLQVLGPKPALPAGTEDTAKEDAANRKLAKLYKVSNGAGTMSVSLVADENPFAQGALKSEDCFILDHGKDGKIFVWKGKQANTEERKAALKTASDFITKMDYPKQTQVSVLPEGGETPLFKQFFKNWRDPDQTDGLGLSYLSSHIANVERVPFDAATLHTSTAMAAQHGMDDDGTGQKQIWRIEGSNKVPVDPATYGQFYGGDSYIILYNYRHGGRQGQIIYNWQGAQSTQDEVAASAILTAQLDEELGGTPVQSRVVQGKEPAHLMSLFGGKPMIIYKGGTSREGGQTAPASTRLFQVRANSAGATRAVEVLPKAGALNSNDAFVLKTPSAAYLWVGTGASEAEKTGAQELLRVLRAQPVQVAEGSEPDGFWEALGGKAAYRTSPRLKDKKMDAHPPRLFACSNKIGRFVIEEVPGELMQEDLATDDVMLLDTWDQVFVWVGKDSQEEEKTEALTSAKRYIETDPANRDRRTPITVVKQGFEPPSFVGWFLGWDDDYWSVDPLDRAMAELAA

Results are given in words; binding and its absence hold for the method and conditions named. Some binding calls cover weakened binding; strength is not graded here. Sequences can lack the tags named with a protein.

The target of the assay is T1, Flag-tagged SHARPIN (human) (UniProt Q9H0F6).
T1 sequence (looked up): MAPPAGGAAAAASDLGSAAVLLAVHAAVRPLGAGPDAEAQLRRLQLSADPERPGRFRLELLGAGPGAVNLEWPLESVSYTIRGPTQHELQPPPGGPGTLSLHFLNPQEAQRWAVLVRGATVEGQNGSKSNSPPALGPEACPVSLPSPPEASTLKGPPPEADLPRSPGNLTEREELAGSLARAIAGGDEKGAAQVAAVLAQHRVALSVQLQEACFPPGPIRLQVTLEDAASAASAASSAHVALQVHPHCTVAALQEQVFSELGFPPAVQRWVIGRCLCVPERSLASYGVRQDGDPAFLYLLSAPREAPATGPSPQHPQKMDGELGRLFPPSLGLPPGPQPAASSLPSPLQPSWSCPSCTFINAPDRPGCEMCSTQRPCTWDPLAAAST
In words: Flag IP of Flag-SHARPIN from WM115 lysate, on-bead tryptic digestion, LC/MS-MS.

Consider GSN (from UniProt P06396 52-782), for which the binding result is given as “binds”.
